Source: article PMC11563578 (eLife, 2024)
These are yes or no findings as the source states them, for the method shown. Binding seen in cells or lysates may run through a third protein. Here binding means that the protein was enriched with, or labelled near, the bait; the list need not be complete.

By UniProt entry, the sequences of proteins in these tests, tags left out. Where a name states a change or a piece, a line headed by the entry shows the natural chain unless it says otherwise.
UniProt P08518: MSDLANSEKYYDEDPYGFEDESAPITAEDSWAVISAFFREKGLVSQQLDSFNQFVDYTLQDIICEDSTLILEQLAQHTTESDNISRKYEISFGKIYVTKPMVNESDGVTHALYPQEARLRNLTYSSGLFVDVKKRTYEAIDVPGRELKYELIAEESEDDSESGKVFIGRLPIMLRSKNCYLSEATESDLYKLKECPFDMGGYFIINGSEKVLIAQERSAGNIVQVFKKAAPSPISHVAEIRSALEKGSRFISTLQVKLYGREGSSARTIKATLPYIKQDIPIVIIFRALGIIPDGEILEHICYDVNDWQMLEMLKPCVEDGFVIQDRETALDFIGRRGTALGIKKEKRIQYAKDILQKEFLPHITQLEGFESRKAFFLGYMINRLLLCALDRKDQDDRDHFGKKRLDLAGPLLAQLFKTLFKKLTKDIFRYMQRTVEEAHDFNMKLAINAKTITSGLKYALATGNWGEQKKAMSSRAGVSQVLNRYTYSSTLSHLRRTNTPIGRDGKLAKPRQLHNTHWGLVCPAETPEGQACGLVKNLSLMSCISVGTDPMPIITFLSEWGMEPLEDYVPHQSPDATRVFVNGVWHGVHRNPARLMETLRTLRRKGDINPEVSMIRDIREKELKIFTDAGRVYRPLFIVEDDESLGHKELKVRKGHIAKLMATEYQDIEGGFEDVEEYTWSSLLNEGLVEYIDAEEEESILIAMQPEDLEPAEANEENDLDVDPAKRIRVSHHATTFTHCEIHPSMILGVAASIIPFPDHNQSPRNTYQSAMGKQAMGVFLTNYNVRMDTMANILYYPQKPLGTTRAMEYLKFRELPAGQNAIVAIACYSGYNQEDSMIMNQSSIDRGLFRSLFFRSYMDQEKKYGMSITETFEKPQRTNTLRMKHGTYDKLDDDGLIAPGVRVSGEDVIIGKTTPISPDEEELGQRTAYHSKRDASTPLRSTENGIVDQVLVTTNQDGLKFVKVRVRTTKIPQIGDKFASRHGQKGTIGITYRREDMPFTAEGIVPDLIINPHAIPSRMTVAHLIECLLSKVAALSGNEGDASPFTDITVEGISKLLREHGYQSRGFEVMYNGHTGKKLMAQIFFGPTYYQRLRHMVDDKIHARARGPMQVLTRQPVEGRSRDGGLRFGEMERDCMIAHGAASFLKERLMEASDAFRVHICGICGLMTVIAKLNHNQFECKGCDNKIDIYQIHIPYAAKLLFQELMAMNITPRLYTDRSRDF
UniProt P20434: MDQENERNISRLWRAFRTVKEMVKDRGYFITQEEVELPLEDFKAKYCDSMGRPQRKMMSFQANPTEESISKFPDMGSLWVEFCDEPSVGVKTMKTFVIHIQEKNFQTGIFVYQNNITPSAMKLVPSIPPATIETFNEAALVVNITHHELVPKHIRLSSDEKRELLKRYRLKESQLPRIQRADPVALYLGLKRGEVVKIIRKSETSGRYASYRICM

Target: FLAG-tagged Rpb2 (C-terminal HFH tag on RPB2, Δrpb4 strain) (S. cerevisiae) (UniProt P08518)
Assay: affinity purification with mass spectrometry; yeast lysate (50 mM HEPES pH 7.9, 400 mM ammonium sulfate, 10 mM MgSO4, 1 mM EDTA, 20% glycerol) on anti-FLAG M2 agarose overnight at 4°C, eluted with 3X FLAG peptide; bait Rpb3-HFH (wild type) or Rpb2-HFH (Δrpb4 strain); subunits seen by Coomassie SDS-PAGE and by MS of Q2linker-modified peptides

“RNA polymerase II subunit Rpb5 (from UniProt P20434 1-215)” was tested, and the binding was “binds”.
